Results: article PMC10393992 (Nature Communications, 2023)
Residue numbers refer to the chain shown, from its start. No constants are given. Whether binding was seen depends on the method and setting. In cells and extracts the contact can be indirect. Some results given as binding are weak or reduced against the parent protein; the word gives no strength. Sequences can lack the tags named with a protein.

Sequences of proteins named here, by UniProt entry; tags and fusion partners are left off.
UniProt P60953: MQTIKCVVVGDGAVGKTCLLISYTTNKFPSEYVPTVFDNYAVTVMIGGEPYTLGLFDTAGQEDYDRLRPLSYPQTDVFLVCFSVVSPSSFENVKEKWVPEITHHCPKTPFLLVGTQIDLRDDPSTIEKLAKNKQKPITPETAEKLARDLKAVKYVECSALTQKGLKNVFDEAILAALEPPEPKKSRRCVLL

Columns and labels:
Experiment in all cases: pull-down; hexa-histidine-tagged recombinant protein (~5 ug) on Ni-NTA agarose mixed with cell lysate containing EGFP-Cdc42 pre-incubated with GTPgamma-S or GDP and 20 mM EDTA (30 C, 15 min); 4 C, 25 min; eluted with 400 mM imidazole; western blot; the results are told for the GTPgamma-S-loaded …; only the target purified
[1] = biological target: T1, hexa-histidine-tagged CIP4-FDR (Mus musculus) (UniProt Q8CJ53)
T1 sequence: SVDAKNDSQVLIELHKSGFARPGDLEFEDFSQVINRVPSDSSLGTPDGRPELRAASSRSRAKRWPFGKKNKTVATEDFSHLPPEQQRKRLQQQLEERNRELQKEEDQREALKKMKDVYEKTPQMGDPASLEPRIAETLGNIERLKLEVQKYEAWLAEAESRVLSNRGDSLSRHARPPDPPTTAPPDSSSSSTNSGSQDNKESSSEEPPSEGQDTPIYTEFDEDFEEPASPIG

[2] = biological target: T2, hexa-histidine-tagged CIP4-FDR(4S) (Mus musculus) (UniProt Q8CJ53)
T2 sequence: T1 sequence with L90S, L144S, Y151S, W154S

[3] = biological target: T3, hexa-histidine-tagged CIP4-FDR(IST) (Mus musculus) (UniProt Q8CJ53)
T3 sequence: T1 sequence with M124I, G125S, D126T

binding [1]: binds
binding [2]: binds
binding [3]: binds
Substance: EGFP-fused Cdc42 (from UniProt P60953 1-191)
